Experimental data as given in US8241627B2, “Modified polypeptides stabilized in a desired conformation and methods for producing same” (The Center for Blood Research, Inc., priority 2000, dated 2012).
Some results were stated once for a whole list of compounds, not compound by compound. Some compounds share one range, which may span the group rather than tell each member.

Protein sequences, listed by entry. Tags and fused reporters are not part of them. Residues count along the entry.
UniProt P05362, 28-480 limits assumed: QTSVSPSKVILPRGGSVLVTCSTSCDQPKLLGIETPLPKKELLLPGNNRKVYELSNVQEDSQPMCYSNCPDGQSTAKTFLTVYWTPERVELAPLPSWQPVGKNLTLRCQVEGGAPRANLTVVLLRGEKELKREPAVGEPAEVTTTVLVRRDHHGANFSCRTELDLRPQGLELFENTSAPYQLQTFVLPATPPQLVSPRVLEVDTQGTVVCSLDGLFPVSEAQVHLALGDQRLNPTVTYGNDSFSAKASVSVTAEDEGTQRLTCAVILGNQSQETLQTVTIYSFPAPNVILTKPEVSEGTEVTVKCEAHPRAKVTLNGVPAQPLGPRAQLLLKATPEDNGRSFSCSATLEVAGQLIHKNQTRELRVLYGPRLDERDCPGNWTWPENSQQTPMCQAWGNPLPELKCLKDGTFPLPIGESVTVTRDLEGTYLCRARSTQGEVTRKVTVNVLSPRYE

B1: L161C/F299C: intermediate-affinity open αL I-domain mutant, cysteines for L161 and F299 (protein)
chain: GNVDLVFLFDGSMSLQPDEFQKILDFMKDVMKKCSNTSYQFAAVQFSTSYKTEFDFSDYVKRKDPDALLKHVKHMLLLTNTFGAINYVATEVFREELGARPDATKVLIIITDGEATDSGNIDAAKDIIRYIIGIGKHFQTKESQETLHKFASKPASEFVKILDTFEKLKDLCTELQKKIY
B2: K160C/F299C: intermediate-affinity open αL I-domain mutant, cysteines for K160 and F299 (protein)
chain: GNVDLVFLFDGSMSLQPDEFQKILDFMKDVMKCLSNTSYQFAAVQFSTSYKTEFDFSDYVKRKDPDALLKHVKHMLLLTNTFGAINYVATEVFREELGARPDATKVLIIITDGEATDSGNIDAAKDIIRYIIGIGKHFQTKESQETLHKFASKPASEFVKILDTFEKLKDLCTELQKKIY
B3: L161C/T300C: intermediate-affinity open αL I-domain mutant, cysteines for L161 and T300 (protein)
chain: GNVDLVFLFDGSMSLQPDEFQKILDFMKDVMKKCSNTSYQFAAVQFSTSYKTEFDFSDYVKRKDPDALLKHVKHMLLLTNTFGAINYVATEVFREELGARPDATKVLIIITDGEATDSGNIDAAKDIIRYIIGIGKHFQTKESQETLHKFASKPASEFVKILDTFEKLKDLFCELQKKIY

The molecules below were run against ICAM-1 (Homo sapiens, UniProt P05362) (assay: BIAcore binding of soluble αL I-domains to ICAM-1). Settings: ICAM-1, soluble I-domains.
Experimental: Briefly, recombinant mutant αL I-domain stabilized in the open conformation (K287C/K294C), or recombinant wild-type αL I-domain from amino acid residue G128 to Y307, were cloned into pET11b (Novagen) and expressed in E. coli induced with 1 mM IPTG for 4 hours. The recombinant proteins were purified from inclusion bodies by solubilization of inclusion bodies in 6M guanidine HCl and were refolded by dilution in the presence of 0.1 mM Cu^2+/phenanthrolin to enhance formation of disulfide bonds. Protein was concentrated by ammonium sulfate precipitation, dialyzed, and purified over a monoQ ion-exchange column. […] The recombinant proteins were then purified by gel filtration and concentrated by Centriprep. For BIAcore™ analysis, recombinant ICAM-1, ICAM-2 and ICAM-3 Fc chimeras were immobilized on the BIAcore™ sensor chip by an amine-coupling method. Recombinant αL I-domains were flowed in, and BIAcore™ assays were performed with Tris-buffered saline supplemented with 1 mM MgCl2 or 2 mM EDTA, at a flow rate of 10 μl/minute at 25° C.

Affinity compared with high-affinity open αL I-domain K287C/K294C (times lower), 20-30 times:
B1
B2
B3
